{"source": "paper PMC6389893", "binders": {"B1": {"name": "TRIM33 PHD(C901A/C902A/C905A) (protein, UniProt Q9UPN9 1-1127)", "chain": "MAENKGGGEAESGGGGSGSAPVTAGAAGPAAQEAEPPLTAVLVEEEEEEGGRAGAEGGAAGPDDGGVAAASSGSAQAASSPAASVGTGVAGGAVSTPAPAPASAPAPGPSAGPPPGPPASLLDTCAVCQQSLQSRREAEPKLLPCLHSFCLRCLPEPERQLSVPIPGGSNGDIQQVGVIRCPVCRQECRQIDLVDNYFVKDTSEAPSSSDEKSEQVCTSCEDNASAVGFCVECGEWLCKTCIEAHQRVKFTKDHLIRKKEDVSESVGASGQRPVFCPVHKQEQLKLFCETCDRLTCRDCQLLEHKEHRYQFLEEAFQNQKGAIENLLAKLLEKKNYVHFAATQVQNRIKEVNETNKRVEQEIKVAIFTLINEINKKGKSLLQQLENVTKERQMKLLQQQNDITGLSRQVKHVMNFTNWAIASGSSTALLYSKRLITFQLRHILKARCDPVPAANGAIRFHCDPTFWAKNVVNLGNLVIESKPAPGYTPNVVVGQVPPGTNHISKTPGQINLAQLRLQHMQQQVYAQKHQQLQQMRMQQPPAPVPTTTTTTQQHPRQAAPQMLQQQPPRLISVQTMQRGNMNCGAFQAHQMRLAQNAARIPGIPRHSGPQYSMMQPHLQRQHSNPGHAGPFPVVSVHNTTINPTSPTTATMANANRGPTSPSVTAIELIPSVTNPENLPSLPDIPPIQLEDAGSSSLDNLLSRYISGSHLPPQPTSTMNPSPGPSALSPGSSGLSNSHTPVRPPSTSSTGSRGSCGSSGRTAEKTSLSFKSDQVKVKQEPGTEDEICSFSGGVKQEKTEDGRRSACMLSSPESSLTPPLSTNLHLESELDALASLENHVKIEPADMNESCKQSGLSSLVNGKSPIRSLMHRSARIGGDGNNKDDDPNEDWCAVCQNGGDLLAAEKAPKVFHLTCHVPTLLSFPSGDWICTFCRDIGKPEVEYDCDNLQHSKKGKTAQGLSPVDQRKCERLLLYLYCHELSIEFQEPVPASIPNYYKIIKKPMDLSTVKKKLQKKHSQHYQIPDDFVADVRLIFKNCERFNEMMKVVQVYADTQEINLKADSEVAQAGKAVALYFEDKLTEIYSDRTFAPLPEFEQEEDDGEVTEDSDEDFIQPRRKRLKSDERPVHIK"}}, "biological_target": "GST-IN full length (HIV-1)", "assay": "pull-down; GST pull-down of wild-type TRIM33 and its RING and PHD point mutants with IN (Supplementary Fig. 6c); how the TRIM33 proteins were made is not told for this panel", "note": "Results are given in words; binding and its absence hold for the method and conditions named. Binding seen in cells or lysates may run through a third protein. Binding calls can cover weak binding; strength is not graded here.", "data": [{"binder": "B1", "values": [{"measurement": "binding", "value": "binds"}]}]}
